Drawing on the supplement of paper PMC10470496, this text covers growth for 20 compounds.

Where a name gives a salt, the structure may show the parent alone. The list shows a part of the results. Repeats are few or missing, and single values can be far off.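 Three clinical Candida auris isolates (clades III, IV and I) from the CDC resistance isolate bank were grown in RPMI-1640 at 35°C. Growth was background-corrected OD600 relative to same-plate vehicle-only wells. Hits required over 50% inhibition in at least two strains and a plate-corrected B-score above 0.1.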

Some test systems named below: C. auris AR-384; C. auris AR-386; C. auris AR-387.
Common to all, as to test: growth relative to vehicle control (OD600 ratio) (fraction); higher = less inhibition
Conditions in all cases: 24 h

Take `Cc1ccc(Sc2ccccc2N2CCNCC2)c(C)c1`: the growth with C. auris AR-384 (1 µM) was found to be 1.19; in the test on C. auris AR-384 (10 µM), 1.03; in the test on C. auris AR-386 (1 µM), 0.91; with C. auris AR-386 (10 µM), 0.87; in the test on C. auris AR-387 (1 µM), 0.81; in the test with C. auris AR-387 (10 µM) it was 0.87.

For the compound `CCOC(=O)Nc1ccc(NCc2ccc(F)cc2)nc1N` [Flupirtine maleate], the growth was determined as 1.1 in the test on C. auris AR-384 (1 µM); 0.74 in the test on C. auris AR-384 (10 µM); 0.8 in the test with C. auris AR-386 (1 µM); 0.86 in the test on C. auris AR-386 (10 µM); 1.16 in the test with C. auris AR-387 (1 µM); 0.95 in the test with C. auris AR-387 (10 µM).

`COc1ncnc(NS(=O)(=O)c2ccc(N)cc2)c1OC` [Sulfadoxine]: the growth in the test on C. auris AR-384 (1 µM) amounted to 0.74; in the test with C. auris AR-384 (10 µM), 0.6; in the test with C. auris AR-386 (1 µM), 0.77; in the test with C. auris AR-386 (10 µM) it was 0.97; with C. auris AR-387 (1 µM) it was 0.7; in the test on C. auris AR-387 (10 µM) it was 0.55.

As for `CC1(C)[C@@H](OC(=O)CCC(=O)O)CC[C@]2(C)[C@H]3C(=O)C=C4[C@@H]5C[C@@](C)(C(=O)O)CC[C@]5(C)CC[C@@]4(C)[C@]3(C)CC[C@@H]12` [Carbenoxolone Sodium], the growth amounted to 0.98 with C. auris AR-384 (1 µM); 0.85 in the test with C. auris AR-384 (10 µM); 0.99 in the test on C. auris AR-386 (1 µM); 0.8 in the test on C. auris AR-386 (10 µM); 0.78 with C. auris AR-387 (1 µM); 1 in the test with C. auris AR-387 (10 µM).

Turning to `C[C@H]1COc2c(C3(N)CC3)c(F)cc3c(=O)c(C(=O)O)cn1c23` [Pazufloxacin mesylate], the growth with C. auris AR-384 (1 µM) amounted to 0.8; in the test on C. auris AR-384 (10 µM), 0.57; in the test with C. auris AR-386 (1 µM) it was 0.79; in the test on C. auris AR-386 (10 µM), 0.62; in the test with C. auris AR-387 (1 µM), 0.57; in the test with C. auris AR-387 (10 µM) it was 0.74.

In the case of `CNC(=O)[C@H](Cc1ccccc1)NC(=O)[C@H](CC(C)C)[C@H](CSc1cccs1)C(=O)NO` [Batimastat (BB-94)], the growth in the test with C. auris AR-384 (1 µM) came out at 1.13; in the test on C. auris AR-384 (10 µM), 1.26; in the test with C. auris AR-386 (1 µM) it was 1.44; with C. auris AR-386 (10 µM), 1.28; in the test on C. auris AR-387 (1 µM), 1.49; with C. auris AR-387 (10 µM) it was 1.19.

As for `O=C1OCCN1/N=C/c1ccc([N+](=O)[O-])o1` [Furazolidone], the growth in the test with C. auris AR-384 (1 µM) was found to be 1.05; with C. auris AR-384 (10 µM), 0.78; in the test on C. auris AR-386 (1 µM) it was 0.94; in the test on C. auris AR-386 (10 µM), 0.92; with C. auris AR-387 (1 µM), 1.12; in the test with C. auris AR-387 (10 µM) it was 1.19.

For the compound `CN1CCN(c2nc(C3=C(c4c[nH]c5ccccc45)C(=O)NC3=O)c3ccccc3n2)CC1` [Sotrastaurin], the growth in the test with C. auris AR-384 (1 µM) was 0.83; in the test on C. auris AR-384 (10 µM) it was 0.92; in the test with C. auris AR-386 (1 µM) it was 0.7; in the test on C. auris AR-386 (10 µM), 0.82; in the test with C. auris AR-387 (1 µM), 0.76; with C. auris AR-387 (10 µM), 0.76.

Consider `NC(=O)OCC(COC(N)=O)c1ccccc1` [Felbamate], for which the growth turned out to be 1.1 in the test on C. auris AR-384 (1 µM); 1.39 with C. auris AR-384 (10 µM); 1.33 in the test on C. auris AR-386 (1 µM); 1.28 in the test with C. auris AR-386 (10 µM); 1.4 in the test with C. auris AR-387 (1 µM); 1.26 in the test with C. auris AR-387 (10 µM).

With `CN(C)CCCOc1nn(Cc2ccccc2)c2ccccc12` [Benzydamine HCl], the growth was determined as 0.81 with C. auris AR-384 (1 µM); 0.85 with C. auris AR-384 (10 µM); 0.94 with C. auris AR-386 (1 µM); 1.03 with C. auris AR-386 (10 µM); 0.64 in the test with C. auris AR-387 (1 µM); 0.74 in the test on C. auris AR-387 (10 µM).

With `C=CCc1cc(OC)c(O)c(C(=O)NCCO)c1` [Alibendol], the growth was determined as 0.78 in the test on C. auris AR-384 (1 µM); 0.84 in the test with C. auris AR-384 (10 µM); 0.86 in the test with C. auris AR-386 (1 µM); 1.19 in the test on C. auris AR-386 (10 µM); 1.1 with C. auris AR-387 (1 µM); 0.93 with C. auris AR-387 (10 µM).

On to `OCCOCCN1CCN(C2=Nc3ccccc3Sc3ccccc32)CC1` [Quetiapine Fumarate], for which the growth in the test on C. auris AR-384 (1 µM) was found to be 0.89; in the test with C. auris AR-384 (10 µM) it was 0.88; with C. auris AR-386 (1 µM), 0.78; in the test on C. auris AR-386 (10 µM) it was 0.6; in the test on C. auris AR-387 (1 µM), 0.7; in the test with C. auris AR-387 (10 µM) it was 0.87.

For the compound `CO[C@@H]1[C@@H](OC(N)=O)[C@@H](O)[C@H](Oc2ccc3c(O)c(NC(=O)c4ccc(O)c(CC=C(C)C)c4)c(=O)oc3c2C)OC1(C)C` [Novobiocin Sodium], the growth in the test with C. auris AR-384 (1 µM) is 0.84; in the test on C. auris AR-384 (10 µM), 0.78; with C. auris AR-386 (1 µM), 1.51; in the test on C. auris AR-386 (10 µM) it was 0.72; in the test on C. auris AR-387 (1 µM), 0.79; with C. auris AR-387 (10 µM), 0.94.

For `NC[C@H](O)c1ccc(O)c(O)c1` [Noradrenaline bitartrate monohydrate], the growth was 1.32 with C. auris AR-384 (1 µM); 1.12 in the test with C. auris AR-384 (10 µM); 0.89 in the test with C. auris AR-386 (1 µM); 1.04 with C. auris AR-386 (10 µM); 0.81 with C. auris AR-387 (1 µM); 1.1 in the test with C. auris AR-387 (10 µM).

On to `CC(C)(S)[C@@H](N)C(=O)O` [Penicillamine], for which the growth with C. auris AR-384 (1 µM) amounted to 1.04; with C. auris AR-384 (10 µM), 1.37; in the test with C. auris AR-386 (1 µM), 0.98; in the test on C. auris AR-386 (10 µM), 1.03; in the test with C. auris AR-387 (1 µM) it was 1.12; in the test with C. auris AR-387 (10 µM), 1.08.

Regarding `Cc1cc(C2CCCCC2)n(O)c(=O)c1` [Ciclopirox ethanolamine], the growth with C. auris AR-384 (1 µM) is 0.3; in the test on C. auris AR-384 (10 µM), 0.13; with C. auris AR-386 (1 µM), 0.03; with C. auris AR-386 (10 µM), 0.01; in the test on C. auris AR-387 (1 µM) it was 0.04; in the test on C. auris AR-387 (10 µM), -0.01.

In the case of `Cc1ncc([N+](=O)[O-])n1CC(C)O` (stereo not given) [Secnidazole], the growth in the test with C. auris AR-384 (1 µM) stood at 0.97; in the test on C. auris AR-384 (10 µM), 0.97; in the test on C. auris AR-386 (1 µM), 0.77; in the test with C. auris AR-386 (10 µM) it was 0.91; in the test on C. auris AR-387 (1 µM) it was 1.14; in the test with C. auris AR-387 (10 µM) it was 1.16.

As to `Cc1ccc(C(=O)c2cc(O)c(O)c([N+](=O)[O-])c2)cc1` [Tolcapone], the growth stood at 0.99 with C. auris AR-384 (1 µM); 0.52 in the test on C. auris AR-384 (10 µM); 0.85 in the test on C. auris AR-386 (1 µM); 0.87 with C. auris AR-386 (10 µM); 0.7 in the test on C. auris AR-387 (1 µM); 0.95 in the test with C. auris AR-387 (10 µM).

For `N#Cc1ccc(C(c2ccc(C#N)cc2)n2cncn2)cc1` [Letrozole], the growth with C. auris AR-384 (1 µM) was determined as 0.77; with C. auris AR-384 (10 µM), 0.48; in the test with C. auris AR-386 (1 µM) it was 0.57; with C. auris AR-386 (10 µM), 0.69; with C. auris AR-387 (1 µM), 0.81; with C. auris AR-387 (10 µM) it was 0.83.

For the compound `CC(COc1ccccc1)N(CCCl)Cc1ccccc1` (stereo not given) [Phenoxybenzamine HCl], the growth in the test on C. auris AR-384 (1 µM) was determined as 0.69; in the test with C. auris AR-384 (10 µM), 0.82; with C. auris AR-386 (1 µM), 0.84; in the test with C. auris AR-386 (10 µM), 0.85; in the test with C. auris AR-387 (1 µM), 0.75; with C. auris AR-387 (10 µM) it was 0.76.
